Data as given in PubChem BioAssay AID504744 (Drosophila RNAi Screening Center, 2011).
In all, the deposit lists about 23,000 reagents; below is an unselected part of those with a known target gene and a result. In the full data, 98 (0.43%) are marked active. 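Only hit calls are given; the phospho-dAkt signals, z-scores and hit direction were not deposited.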 A plus sign joins genes that one reagent is predicted to hit.

Assay: 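Uncover factors, including feedback loops, that control dAkt activation in fly cells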 (primary screen)
Cells: Drosophila Kc167 cells
Knock-down reagent: long dsRNA against Drosophila genes, 250 ng dsRNA per well of a 384-well plate
Duration: 3 days of knock-down, then overnight serum-free starvation before stimulation
Conditions: bovine insulin at 387 nM for 10 minutes after 12 h without serum
Measurement: 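Per-well phospho-dAkt level from an in-cell fluorescent antibody stain, divided by a DNA-dye signal; log2 residuals turned into z-scores that take cell number into account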
Rule for the call: 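Hit in the insulin screen when the two-replicate mean z-score is more extreme than plus or minus 2.5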

Target gene,dsRNA,outcome
Chi (GeneID 37837),DRSC04602,inactive
Cap-D2 (GeneID 43491),DRSC15401,inactive
Prp18 (GeneID 42285),DRSC16802,inactive
Kap-alpha3 (GeneID 41158),DRSC16976,inactive
CG10428 (GeneID 35150),DRSC02054,inactive
CG13856 (GeneID 42628),DRSC14706,inactive
Adck5 (GeneID 39260),DRSC10890,inactive
CG14551 (GeneID 43171),DRSC14894,inactive
Thor (GeneID 33569),DRSC00770,inactive
CG5664 (GeneID 40371),DRSC11782,inactive
Myo28B1 (GeneID 53515),DRSC03375,inactive
CG31698 (GeneID 318888),DRSC22226,inactive
MFS9 (GeneID 42426),DRSC15560,inactive
Cox11 (GeneID 33776),DRSC22692,inactive
Catsup (GeneID 48805),DRSC03288,inactive
vex (GeneID 32033),DRSC19481,inactive
vex (GeneID 32033),DRSC19651,inactive
vex (GeneID 32033),DRSC21843,inactive
CG12376 (GeneID 35857),DRSC06144,inactive
CG31287 (GeneID 318663),DRSC13138,inactive
LManVI (GeneID 34206),DRSC03224,inactive
Ire1 (GeneID 42358),DRSC15606,inactive
CG9922 (GeneID 41708),DRSC16579,inactive
CanB (GeneID 44317),DRSC18449,inactive
CheB38a (GeneID 2768934),DRSC03205,inactive
CG4239 (GeneID 32606),DRSC19885,inactive
p130CAS + Dic61B,DRSC08588,inactive
tho2 (GeneID 326153),DRSC00646,inactive
Diap2 (GeneID 36748),DRSC07444,inactive
CG6689 (GeneID 41345),DRSC16095,inactive
Smyd4-4 (GeneID 36299),DRSC05956,inactive
CG12362 (GeneID 39193),DRSC09884,inactive
CG30460 (GeneID 36924),DRSC06559,inactive
CG30460 (GeneID 36924),DRSC06560,inactive
CG10793 (GeneID 31308),DRSC17760,inactive
REPTOR (GeneID 42930),DRSC14626,inactive
CG32568 (GeneID 32659),DRSC19913,inactive
CG5181 (GeneID 34018),DRSC02825,inactive
CG2681 (GeneID 31258),DRSC18464,inactive
CrebA (GeneID 39682),DRSC11122,inactive
Sr-CIV (GeneID 33576),DRSC00575,inactive
ebd1 (GeneID 38082),DRSC08565,inactive
rb (GeneID 31381),DRSC18826,inactive
CG6576 (GeneID 39003),DRSC10663,inactive
xit (GeneID 31623),DRSC18364,inactive
CG15071 (GeneID 37153),DRSC06504,inactive
DIP-beta (GeneID 33125),DRSC20461,inactive
DIP-beta (GeneID 33125),DRSC20489,inactive
DIP-beta (GeneID 33125),DRSC20490,inactive
DIP-beta (GeneID 33125),DRSC20505,inactive
CG31659 (GeneID 318875),DRSC00760,inactive
Pli (GeneID 42821),DRSC16792,inactive
mRpL54 (GeneID 37389),DRSC04545,inactive
Cpr11B (GeneID 32203),DRSC19859,inactive
Vha16-3 (GeneID 317846),DRSC10872,inactive
Ugt37D1 (GeneID 53511),DRSC02645,inactive
Atg18b (GeneID 35396),DRSC03108,inactive
Gr36c (GeneID 117486),DRSC02437,inactive
hig (GeneID 35949),DRSC07628,inactive
hig (GeneID 35949),DRSC22827,inactive
hig (GeneID 35949),DRSC22899,inactive
CG5715 (GeneID 42895),DRSC15860,inactive
CG11141 (GeneID 35672),DRSC06048,inactive
Tpc2 (GeneID 37983),DRSC04322,inactive
CG13540 (GeneID 37686),DRSC04182,inactive
Mal-A1 (GeneID 35824),DRSC07461,inactive
CG2767 (GeneID 40946),DRSC15451,inactive
term (GeneID 47208),DRSC21730,inactive
CG9231 (GeneID 40130),DRSC11054,inactive
MtnC (GeneID 42416),DRSC22879,inactive
CysRS-m (GeneID 36563),DRSC07129,inactive
CG32111 (retired record) (GeneID 317859),DRSC09203,inactive
Cyp6d2 (GeneID 37594),DRSC04606,inactive
CG13051 (GeneID 5740583),DRSC09932,inactive
CG6432 (GeneID 42901),DRSC16039,inactive
CG4907 (GeneID 42686),DRSC15673,inactive
CG7448 (retired record) (GeneID 40440),DRSC11828,inactive
CG7448 (retired record) (GeneID 40440),DRSC22485,inactive
CG7298 (GeneID 40210),DRSC10802,inactive
CG18231 (GeneID 40026),DRSC10307,inactive
cpo (GeneID 45840),DRSC13265,inactive
Tmem131 (GeneID 36761),DRSC07154,inactive
lncRNA:CR32553 (GeneID 318087),DRSC19229,inactive
CG32161 (GeneID 317890),DRSC22128,inactive
CG13674 (GeneID 38921),DRSC10033,inactive
CG31862 (GeneID 318989),DRSC01245,inactive
BHD (GeneID 38793),DRSC11017,inactive
BHD (GeneID 38793),DRSC22833,inactive
gdl-ORF39 + gdl,DRSC11350,inactive
slim (GeneID 37121),DRSC06921,inactive
CG31109 (GeneID 43001),DRSC14648,inactive
Unc-115b + p24-2 + Unc-115a,DRSC16502,inactive
ATPsyngamma (GeneID 43507),DRSC14094,inactive
Or85e (retired record) (GeneID 3772269),DRSC16768,inactive
CG8924 (GeneID 32557),DRSC20122,inactive
CG32182 (GeneID 317898),DRSC09508,inactive
CG14406 (GeneID 32421),DRSC19592,inactive
CG33769 (GeneID 3772499),DRSC11716,inactive
Ttc7 (GeneID 48387),DRSC04836,inactive
CG7091 (GeneID 41590),DRSC12944,inactive
CG7091 (GeneID 41590),DRSC16197,inactive
CG32633 (GeneID 326225),DRSC18987,inactive
Mitf (GeneID 3885647),DRSC17212,inactive
Mitf (GeneID 3885647),DRSC21056,inactive
SkpB (GeneID 36298),DRSC07683,inactive
mri (GeneID 38028),DRSC08259,inactive
CG13671 (GeneID 38932),DRSC10030,inactive
HisT (GeneID 35697),DRSC05051,inactive
HisT (GeneID 35697),DRSC05052,inactive
HisT (GeneID 35697),DRSC06405,active
CG4281 (GeneID 31171),DRSC18521,inactive
smg (GeneID 39034),DRSC11397,inactive
brn (GeneID 31358),DRSC18746,inactive
CG12025 (GeneID 38246),DRSC08230,inactive
cysu (GeneID 42100),DRSC15902,inactive
Secp43 (GeneID 33652),DRSC00454,inactive
Cby (GeneID 42574),DRSC14591,inactive
Actn (GeneID 31166),DRSC17724,inactive
Fs (GeneID 2768836),DRSC06258,inactive
Fs (GeneID 2768836),DRSC06259,inactive
Cpr (GeneID 33883),DRSC03293,inactive
CG31345 (GeneID 41576),DRSC14193,inactive
CG31345 (GeneID 41576),DRSC14847,inactive
FucTA (GeneID 39653),DRSC10733,inactive
Obp56b (GeneID 37265),DRSC06551,inactive
Nrk (GeneID 36445),DRSC07480,inactive
Pi4KIIIalpha (GeneID 31247),DRSC18655,inactive
CG3655 (GeneID 31056),DRSC17676,inactive
CG3655 (GeneID 31056),DRSC18181,inactive
CG3655 (GeneID 31056),DRSC18477,inactive
CG3655 (GeneID 31056),DRSC22688,inactive
CG6984 (GeneID 36926),DRSC07013,inactive
Mgat1 (GeneID 37323),DRSC07463,inactive
yki (GeneID 37851),DRSC04437,inactive
CG7148 (GeneID 40432),DRSC11802,inactive
Hmu (GeneID 43294),DRSC16705,inactive
Dysb (GeneID 40052),DRSC10730,inactive
Dbp80 (GeneID 3354919),DRSC22034,inactive
alpha-Est9 (GeneID 40897),DRSC12621,inactive
RpL35A (GeneID 40654),DRSC12302,inactive
AIMP3 (GeneID 246507),DRSC04500,inactive
ppk19 (GeneID 43489),DRSC15321,inactive
CG31098 (GeneID 43057),DRSC14259,inactive
Fuca (GeneID 3772574),DRSC10591,inactive
CG12848 (GeneID 50139),DRSC04128,inactive
Mlc2 (GeneID 43587),DRSC16741,inactive
CG4287 (GeneID 41939),DRSC15559,inactive
betaGlu (GeneID 43746),DRSC15419,inactive
CG15602 (GeneID 32533),DRSC19671,inactive
lncRNA:noe (GeneID 43918),DRSC22747,inactive
CG32488 (GeneID 326220),DRSC08549,inactive
CG32488 (GeneID 326220),DRSC21537,inactive
Fhos (GeneID 39004),DRSC08943,inactive
Fhos (GeneID 39004),DRSC10545,inactive
Fhos (GeneID 39004),DRSC10546,inactive
Fhos (GeneID 39004),DRSC10547,inactive
Sec24CD (GeneID 33409),DRSC00300,inactive

A few values from above.
For “outcome”, CG15602 (GeneID 32533) [DRSC19671] shows inactive
For “outcome”, CG8924 (GeneID 32557) [DRSC20122] is entered as inactive
For “outcome”, DIP-beta (GeneID 33125) [DRSC20505] is entered as inactive
Entry of CG32111 (retired record) (GeneID 317859) [DRSC09203] in “outcome”: inactive
Under “outcome”, CG32488 (GeneID 326220) [DRSC21537] shows inactive
For “outcome”, Gr36c (GeneID 117486) [DRSC02437] shows inactive
